Experimental data reported in PubChem BioAssay AID328 (DTP/NCI, 2004).
The list is a part of this screen's results and no random one: it is rich in T/C values a quarter to a half above the control, in often repeated tests (any T/C) and in doses without a T/C. Other doses and runs of a compound stand elsewhere. T/C: endpoint of the treated group in % of that of the vehicle group. Some doses have a count of surviving animals in place of a T/C: the source holds a T/C of zero for them, seemingly a mark for toxic or unscored doses. Some survivor counts are full or nearly so, which does not show that the dose was tolerated: the source hardly ever lists a survival T/C far under the control, and the zero likely stands for such cases as well. Counts of survivors are from the toxicity check (mostly the fifth day) where no day follows; animals may have died later. Schedule codes are those of the source, taken here to give the interval after Q, in days (D) or hours (H), and the number of doses after X. Some molecules as drawn cover several salts, stereoisomers or complexes of the source; a dose is that of the sample tested. Some entries were tested several times; their values stand side by side, smallest first. Where survival is the endpoint, this PubChem deposit counts one and a half times the control or more as active, and values a quarter to a half above the control carry no call in these data; other NCI protocols may use other cut-offs.

Tested on: BDF1 mice, P388 leukemia ip, median survival T/C
Experiment: NCI In Vivo Anticancer Drug Screen. Data for tumor model P388 Leukemia (intraperitoneal) in B6D2F1 (BDF1) mice
Details: T/C endpoint: median survival time, higher T/C = longer survival
Method in brief: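 Mice carrying the transplantable tumour receive compound or vehicle. Survival is followed in each arm, and the treated measure is divided by the vehicle measure.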

[1] = dose: 25.0 mg/kg/injection, schedule: Q01DX009 (ip), vehicle: saline
[2] = dose: 200.0 mg/kg/injection, schedule: Q01DX009 (ip), vehicle: saline
[3] = dose: 400.0 mg/kg/injection, schedule: Q04DX003 (ip), vehicle: saline with Tween-80
[4] = dose: 50.0 mg/kg/injection, schedule: Q01DX009 (ip), vehicle: saline with Tween-80
[5] = dose: 100.0 mg/kg/injection, schedule: Q01DX009 (ip), vehicle: saline with Tween-80
[6] = dose: 100.0 mg/kg/injection, schedule: Q04DX003 (ip), vehicle: saline with Tween-80
[7] = dose: 200.0 mg/kg/injection, schedule: Q04DX003 (ip), vehicle: saline with Tween-80
[8] = dose: 2.0 mg/kg/injection, schedule: Q01DX009 (ip), vehicle: Klucel (hydroxypropylcellulose) (HPC)
[9] = dose: 200.0 mg/kg/injection, schedule: Q01DX009 (ip), vehicle: saline with Tween-80
[10] = dose: 400.0 mg/kg/injection, schedule: Q01DX009 (ip), vehicle: saline with Tween-80
[11] = dose: 50.0 mg/kg/injection, schedule: Q01DX005 (ip), vehicle: saline with Tween-80
[12] = dose: 10.0 mg/kg/injection, schedule: Q04DX003 (ip), vehicle: Klucel (hydroxypropylcellulose) (HPC)

With CS(C)=O.CS(C)=O.CS(C)=O.[Cl][Rh]([Cl])[Cl] the survivor count (dose: 6.25 mg/kg/injection, schedule: Q01DX009 (ip), vehicle: saline) was 6 of 6, the survivor count (dose: 12.5 mg/kg/injection, schedule: Q01DX009 (ip), vehicle: saline) was 6 of 6 and the survivor count [1] was 6 of 6. The survivor count (dose: 50.0 mg/kg/injection, schedule: Q01DX009 (ip), vehicle: saline) was 6 of 6, the survivor count (dose: 100.0 mg/kg/injection, schedule: Q01DX009 (ip), vehicle: saline) was 1 of 6 and 2 of 6 and the survivor count [2] was 0 of 6. For the same compound, the survivor count (dose: 200.0 mg/kg/injection, schedule: Q04DX003 (ip), vehicle: saline) was 2 of 6 and the survivor count (dose: 400.0 mg/kg/injection, schedule: Q04DX003 (ip), vehicle: saline) was 1 of 6.
With Cc1c(CNc2ccc(C(=O)NC(CC(=O)O)C(=O)O)cc2)ccc2nc(N)nc(N)c12 (stereo unspecified) the survivor count [1] was 5 of 6.
For CCCCCCCCCCCCCCCCS(=O)(=O)CCO, the survivor count [3] was 6 of 6.
N#Cc1ccccc1-n1c(=O)c2cc3c(=O)n(-c4ccccc4C#N)c(=O)c3cc2c1=O was tested, and the T/C [4] was 126 % of control and the T/C [5] was 128 % of control.
O=NN(CCCl)C(=O)NC1CCC(=O)NC1=O (stereo unspecified) was tested, and the T/C (dose: 13.5 mg/kg/injection, schedule: Q04DX003 (ip), vehicle: gum acacia) was 145 % of control, the survivor count [6] was 5 of 6 and the survivor count [7] was 5 of 6. For the same compound, the survivor count [3] was 0 of 6.
With COc1c2c([n+](C)c3c(OC)cccc13)OC(C(C)C)C2 (stereo unspecified) the survivor count (dose: 0.5 mg/kg/injection, schedule: Q01DX009 (ip), vehicle: saline) was 2 of 6, the survivor count (dose: 1.0 mg/kg/injection, schedule: Q01DX009 (ip), vehicle: saline) was 0 of 6 and 5 of 6 and the survivor count [8] was 6 of 6. The survivor count (dose: 5.6 mg/kg/injection, schedule: Q04DX003 (ip), vehicle: saline) was 0 of 6 and the survivor count (dose: 8.4 mg/kg/injection, schedule: Q04DX003 (ip), vehicle: saline) was 0 of 6.
CCN(CC)CCNc1ccc(CO)c2sc3ccccc3c(=O)c12 was tested, and the T/C (dose: 25.2 mg/kg/injection, schedule: Q01DX009 (ip), vehicle: water) was 142 % of control, the T/C (dose: 36.0 mg/kg/injection, schedule: Q01DX009 (ip), vehicle: water) was 138 % of control and the T/C (dose: 37.5 mg/kg/injection, schedule: Q01DX009 (ip), vehicle: saline) was 137 % of control. For the same compound, the survivor count (dose: 150.0 mg/kg/injection, schedule: Q01DX009 (ip), vehicle: saline) was 5 of 6 and the survivor count (dose: 300.0 mg/kg/injection, schedule: Q01DX009 (ip), vehicle: saline) was 4 of 6.
For COc1cc2ccc3c4cc5c(cc4cnc3c2cc1OC)OCO5, the survivor count (dose: 3.12 mg/kg/injection, schedule: Q01DX009 (ip), vehicle: saline with Tween-80) was 6 of 6, the survivor count (dose: 6.25 mg/kg/injection, schedule: Q01DX009 (ip), vehicle: saline with Tween-80) was 5 of 6 and the survivor count [6] was 6 of 6. The survivor count [7] was 6 of 6.
With C[N+](C)(C)C12CCCCCC1SC2 (stereo unspecified) the survivor count (dose: 100.0 mg/kg/injection, schedule: Q04DX003 (ip), vehicle: saline) was 4 of 6.
With O=C1CC(c2ccc(OCN(CCCl)CCCl)cc2)CC(=O)C1CN(CCCl)CCCl (stereo unspecified) the T/C (dose: 1.0 mg/kg/injection, schedule: Q01DX009 (ip), vehicle: Klucel (hydroxypropylcellulose) (HPC)) was 145 % of control, the T/C [8] was 145 % of control and the T/C (dose: 8.0 mg/kg/injection, schedule: Q01DX009 (ip), vehicle: Klucel (hydroxypropylcellulose) (HPC)) was 145 % of control.
C=C1C(=O)O[C@H]2C/C(C)=C/CC/C(CO)=C/[C@@H](O)[C@H]12 was tested, and the T/C (dose: 11.0 mg/kg/injection, schedule: Q01DX009 (ip), vehicle: alcohol) was 130 % of control, the T/C (dose: 22.0 mg/kg/injection, schedule: Q01DX009 (ip), vehicle: alcohol) was 125 % of control and the survivor count (dose: 75.0 mg/kg/injection, schedule: Q01DX009 (ip), vehicle: alcohol) was 3 of 6. The survivor count (dose: 110.0 mg/kg/injection, schedule: Q01DX009 (ip), vehicle: alcohol) was 0 of 6.
For O=C(O)CCSc1ncnc2nc[nH]c12, the survivor count [5] was 6 of 6, the survivor count [9] was 6 of 6 and the survivor count [10] was 5 of 6.
With COc1ccc2nc3c(Cl)c(Cl)c(=O)c(Cl)c-3sc2c1 the survivor count [11] was 4 of 6.
With COC1C(/C=C/C(=O)CCl)OC2OC(C)(C)OC21 (stereo unspecified) the survivor count [11] was 0 of 6, the survivor count (dose: 100.0 mg/kg/injection, schedule: Q01DX005 (ip), vehicle: saline with Tween-80) was 0 of 6 and the survivor count (dose: 200.0 mg/kg/injection, schedule: Q01DX005 (ip), vehicle: saline with Tween-80) was 0 of 6.
In the case of Cc1ccc(S(=O)(=O)NCN2C(=O)c3ccccc3C2=O)cc1, the survivor count (dose: 12.5 mg/kg/injection, schedule: Q01DX009 (ip), vehicle: saline with Tween-80) is reported as 6 of 6, the survivor count [4] is reported as 6 of 6 and the survivor count [2] is reported as 6 of 6. The survivor count (dose: 400.0 mg/kg/injection, schedule: Q01DX009 (ip), vehicle: saline) was 6 of 6.
With O=C1C=C(c2ccccc2)C(O)(c2ccccc2)C1 (stereo unspecified) the survivor count [10] was 0 of 6.
For Clc1ccc2c(c1)-c1ccccc1C1=NCCN12, the T/C [12] was 140 % of control, the survivor count [12] was 6 of 6 and the survivor count (dose: 100.0 mg/kg/injection, schedule: Q04DX003 (ip), vehicle: Klucel (hydroxypropylcellulose) (HPC)) was 0 of 6. The survivor count (dose: 200.0 mg/kg/injection, schedule: Q04DX003 (ip), vehicle: Klucel (hydroxypropylcellulose) (HPC)) was 0 of 6 and the survivor count (dose: 400.0 mg/kg/injection, schedule: Q04DX003 (ip), vehicle: Klucel (hydroxypropylcellulose) (HPC)) was 0 of 6.
For CCOC(=O)C(=Cc1c[nH]c2ccccc12)C(=O)OCC, the T/C [6] was 136 % of control.
In the case of Cc1ccc(S)cc1, the survivor count [6] is reported as 3 of 6.
For C/C(=N\NC(=S)N1CCCCC1)c1ccccn1, the survivor count [4] was 2 of 6, the survivor count [5] was 0 of 6 and the survivor count [9] was 1 of 6.
With O=C1C(=O)c2ccccc2C(O)=C1CC=C(Cl)Cl the survivor count (dose: 6.2 mg/kg/injection, schedule: Q01DX009 (ip), vehicle: water) was 10 of 10, the survivor count (dose: 12.5 mg/kg/injection, schedule: Q01DX009 (ip), vehicle: water) was 10 of 10 and the survivor count (dose: 50.0 mg/kg/injection, schedule: Q01DX009 (ip), vehicle: water) was 10 of 10. For the same compound, the survivor count (dose: 75.0 mg/kg/injection, schedule: Q01DX009 (ip), vehicle: water) was 6 of 10, the survivor count (dose: 100.0 mg/kg/injection, schedule: Q01DX001 (ip), vehicle: water) was 4 of 10 and the survivor count (dose: 100.0 mg/kg/injection, schedule: Q01DX009 (oral), vehicle: water) was 10 of 10. For the same compound, the survivor count (dose: 100.0 mg/kg/injection, schedule: Q01DX010 (ip), vehicle: saline) was 1 of 6, the survivor count (dose: 100.0 mg/kg/injection, schedule: Q04DX003 (ip), vehicle: water) was 0 of 10 and the survivor count (dose: 200.0 mg/kg/injection, schedule: Q01DX009 (oral), vehicle: water) was 3 of 6 and 10 of 10. For the same compound, the survivor count (dose: 200.0 mg/kg/injection, schedule: Q01DX010 (oral), vehicle: saline with Tween-80) was 4 of 6, the survivor count (dose: 400.0 mg/kg/injection, schedule: Q01DX001 (oral), vehicle: water) was 1 of 10 and the survivor count (dose: 400.0 mg/kg/injection, schedule: Q01DX010 (oral), vehicle: saline with Tween-80) was 1 of 6.
With CC(=O)O[C@@H]1c2c(c3c(=O)c4cccc(O)c4c(=O)c=3c2=[N+]=[N-])[C@H](OC(C)=O)[C@@H](OC(C)=O)[C@]1(C)O the survivor count (dose: 12.0 mg/kg/injection, schedule: Q01DX009 (ip), vehicle: Klucel (hydroxypropylcellulose) (HPC)) was 2 of 3.
In the case of OC1C(c2ccccc2)=C(c2ccccc2)C2(c3ccccc3)CC12c1ccccc1 (stereo unspecified), the survivor count [6] is reported as 5 of 6, the survivor count [7] is reported as 0 of 6 and the survivor count [3] is reported as 1 of 6.
